Source: the supplement of paper PMC6411743
± gives the standard deviation of the averaged measurements. The list shows a part of the results, in another mix than the full data.

Chains of the proteins cited; added tags and fusions are not shown. Lines headed by an entry give the natural chain unless they say otherwise; changes in a name come on top.
UniProt Q9NW81: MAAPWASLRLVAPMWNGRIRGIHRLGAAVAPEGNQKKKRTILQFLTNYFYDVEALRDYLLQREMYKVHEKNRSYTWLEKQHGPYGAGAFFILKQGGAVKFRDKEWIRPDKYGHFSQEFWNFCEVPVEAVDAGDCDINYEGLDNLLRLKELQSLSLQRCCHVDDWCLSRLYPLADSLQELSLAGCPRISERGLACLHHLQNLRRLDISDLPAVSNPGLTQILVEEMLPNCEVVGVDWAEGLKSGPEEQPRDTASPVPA
UniProt Q9NVH0: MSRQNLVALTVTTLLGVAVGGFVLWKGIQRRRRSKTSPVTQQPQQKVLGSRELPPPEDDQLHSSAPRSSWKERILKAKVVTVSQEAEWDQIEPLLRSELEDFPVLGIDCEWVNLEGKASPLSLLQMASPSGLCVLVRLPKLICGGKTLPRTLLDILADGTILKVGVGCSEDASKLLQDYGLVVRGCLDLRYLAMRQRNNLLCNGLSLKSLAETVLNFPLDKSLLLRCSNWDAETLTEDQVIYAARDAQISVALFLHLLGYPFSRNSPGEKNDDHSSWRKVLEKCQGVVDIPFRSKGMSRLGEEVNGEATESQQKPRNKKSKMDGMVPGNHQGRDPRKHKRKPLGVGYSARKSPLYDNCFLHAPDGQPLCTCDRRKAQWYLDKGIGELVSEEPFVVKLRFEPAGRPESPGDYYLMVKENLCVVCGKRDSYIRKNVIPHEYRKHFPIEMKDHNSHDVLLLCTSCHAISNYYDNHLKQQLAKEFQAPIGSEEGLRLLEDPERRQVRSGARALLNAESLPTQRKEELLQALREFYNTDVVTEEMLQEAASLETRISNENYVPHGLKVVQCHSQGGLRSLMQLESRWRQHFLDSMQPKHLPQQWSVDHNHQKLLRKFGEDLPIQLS
UniProt Q9P0P0: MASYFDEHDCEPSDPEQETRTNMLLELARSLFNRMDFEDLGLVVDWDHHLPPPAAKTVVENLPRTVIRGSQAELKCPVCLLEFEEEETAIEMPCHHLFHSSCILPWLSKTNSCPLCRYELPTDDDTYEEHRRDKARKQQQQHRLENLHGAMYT
UniProt Q9P0J0, whole entry: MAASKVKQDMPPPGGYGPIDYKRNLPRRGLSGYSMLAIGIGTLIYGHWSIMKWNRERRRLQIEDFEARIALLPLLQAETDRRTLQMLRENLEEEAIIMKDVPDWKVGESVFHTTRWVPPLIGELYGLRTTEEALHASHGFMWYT
UniProt Q9NRY5: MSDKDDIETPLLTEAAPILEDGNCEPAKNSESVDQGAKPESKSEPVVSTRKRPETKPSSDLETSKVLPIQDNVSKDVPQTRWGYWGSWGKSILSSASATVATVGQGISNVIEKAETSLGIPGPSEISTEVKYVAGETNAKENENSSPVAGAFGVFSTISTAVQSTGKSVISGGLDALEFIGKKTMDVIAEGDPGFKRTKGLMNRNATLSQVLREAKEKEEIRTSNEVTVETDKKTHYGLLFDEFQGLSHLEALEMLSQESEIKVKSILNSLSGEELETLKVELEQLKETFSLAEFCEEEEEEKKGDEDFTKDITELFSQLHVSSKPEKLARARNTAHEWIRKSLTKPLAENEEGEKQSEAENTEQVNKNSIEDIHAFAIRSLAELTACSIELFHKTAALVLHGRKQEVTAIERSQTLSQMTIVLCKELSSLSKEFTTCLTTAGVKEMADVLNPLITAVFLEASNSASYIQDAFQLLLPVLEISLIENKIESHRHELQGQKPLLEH
UniProt Q9NQY0: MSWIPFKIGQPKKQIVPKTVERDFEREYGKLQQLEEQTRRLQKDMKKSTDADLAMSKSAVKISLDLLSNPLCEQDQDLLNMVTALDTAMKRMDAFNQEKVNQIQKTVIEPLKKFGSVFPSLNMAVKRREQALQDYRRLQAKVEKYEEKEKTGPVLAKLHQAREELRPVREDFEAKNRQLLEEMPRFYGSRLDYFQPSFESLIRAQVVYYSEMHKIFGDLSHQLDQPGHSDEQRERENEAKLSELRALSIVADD
UniProt Q9NWS8: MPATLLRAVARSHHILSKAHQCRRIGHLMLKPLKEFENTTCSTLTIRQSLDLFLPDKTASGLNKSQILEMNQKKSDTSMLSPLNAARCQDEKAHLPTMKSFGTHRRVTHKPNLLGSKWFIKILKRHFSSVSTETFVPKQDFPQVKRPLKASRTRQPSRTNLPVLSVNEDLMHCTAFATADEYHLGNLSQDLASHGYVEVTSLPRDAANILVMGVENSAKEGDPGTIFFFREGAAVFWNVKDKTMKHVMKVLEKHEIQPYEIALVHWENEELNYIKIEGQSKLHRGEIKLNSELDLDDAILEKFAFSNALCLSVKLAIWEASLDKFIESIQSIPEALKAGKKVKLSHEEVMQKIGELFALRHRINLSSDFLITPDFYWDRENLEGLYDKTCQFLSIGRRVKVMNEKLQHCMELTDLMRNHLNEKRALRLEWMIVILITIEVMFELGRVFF
UniProt Q9NV88, whole entry: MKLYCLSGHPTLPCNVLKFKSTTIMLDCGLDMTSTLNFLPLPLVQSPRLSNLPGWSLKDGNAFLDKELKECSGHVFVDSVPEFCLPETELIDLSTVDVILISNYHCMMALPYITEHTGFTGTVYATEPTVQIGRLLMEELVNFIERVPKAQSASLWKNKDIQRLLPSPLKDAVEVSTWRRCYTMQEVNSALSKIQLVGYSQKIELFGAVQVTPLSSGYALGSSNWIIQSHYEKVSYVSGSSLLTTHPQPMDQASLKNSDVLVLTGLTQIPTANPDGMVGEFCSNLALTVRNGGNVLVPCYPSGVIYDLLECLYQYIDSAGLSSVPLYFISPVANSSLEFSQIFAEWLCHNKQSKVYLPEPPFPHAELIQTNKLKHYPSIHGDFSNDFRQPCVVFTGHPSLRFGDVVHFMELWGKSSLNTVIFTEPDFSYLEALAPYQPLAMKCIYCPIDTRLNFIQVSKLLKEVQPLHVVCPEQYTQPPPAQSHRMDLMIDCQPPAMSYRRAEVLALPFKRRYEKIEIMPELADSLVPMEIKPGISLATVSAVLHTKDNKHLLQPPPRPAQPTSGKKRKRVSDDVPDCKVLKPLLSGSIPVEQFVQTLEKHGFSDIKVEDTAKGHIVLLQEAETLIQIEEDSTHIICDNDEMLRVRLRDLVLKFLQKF
UniProt Q9NPQ8: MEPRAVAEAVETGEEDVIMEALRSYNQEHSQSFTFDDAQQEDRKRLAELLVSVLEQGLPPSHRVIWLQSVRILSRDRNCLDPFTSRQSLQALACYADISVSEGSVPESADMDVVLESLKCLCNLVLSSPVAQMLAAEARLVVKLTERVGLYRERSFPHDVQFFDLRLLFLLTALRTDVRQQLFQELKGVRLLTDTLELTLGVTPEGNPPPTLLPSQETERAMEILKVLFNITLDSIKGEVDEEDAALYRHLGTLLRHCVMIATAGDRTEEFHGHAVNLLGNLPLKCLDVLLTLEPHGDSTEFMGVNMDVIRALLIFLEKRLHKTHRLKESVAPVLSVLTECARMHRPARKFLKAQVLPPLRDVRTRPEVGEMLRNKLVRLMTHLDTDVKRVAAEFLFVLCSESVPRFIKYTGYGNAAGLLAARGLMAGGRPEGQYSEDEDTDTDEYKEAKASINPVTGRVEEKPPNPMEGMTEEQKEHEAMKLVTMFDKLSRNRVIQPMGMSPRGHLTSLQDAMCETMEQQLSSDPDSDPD
UniProt Q9NX62: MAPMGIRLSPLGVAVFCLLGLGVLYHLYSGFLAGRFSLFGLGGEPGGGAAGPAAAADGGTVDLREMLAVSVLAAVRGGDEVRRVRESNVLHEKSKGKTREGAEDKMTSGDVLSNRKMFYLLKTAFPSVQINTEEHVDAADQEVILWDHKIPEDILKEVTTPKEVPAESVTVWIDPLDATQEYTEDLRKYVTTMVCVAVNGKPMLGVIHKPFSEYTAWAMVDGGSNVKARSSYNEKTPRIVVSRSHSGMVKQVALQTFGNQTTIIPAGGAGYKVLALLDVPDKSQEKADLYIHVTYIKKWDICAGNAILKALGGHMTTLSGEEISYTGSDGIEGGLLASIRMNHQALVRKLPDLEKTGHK
UniProt Q9P2J5: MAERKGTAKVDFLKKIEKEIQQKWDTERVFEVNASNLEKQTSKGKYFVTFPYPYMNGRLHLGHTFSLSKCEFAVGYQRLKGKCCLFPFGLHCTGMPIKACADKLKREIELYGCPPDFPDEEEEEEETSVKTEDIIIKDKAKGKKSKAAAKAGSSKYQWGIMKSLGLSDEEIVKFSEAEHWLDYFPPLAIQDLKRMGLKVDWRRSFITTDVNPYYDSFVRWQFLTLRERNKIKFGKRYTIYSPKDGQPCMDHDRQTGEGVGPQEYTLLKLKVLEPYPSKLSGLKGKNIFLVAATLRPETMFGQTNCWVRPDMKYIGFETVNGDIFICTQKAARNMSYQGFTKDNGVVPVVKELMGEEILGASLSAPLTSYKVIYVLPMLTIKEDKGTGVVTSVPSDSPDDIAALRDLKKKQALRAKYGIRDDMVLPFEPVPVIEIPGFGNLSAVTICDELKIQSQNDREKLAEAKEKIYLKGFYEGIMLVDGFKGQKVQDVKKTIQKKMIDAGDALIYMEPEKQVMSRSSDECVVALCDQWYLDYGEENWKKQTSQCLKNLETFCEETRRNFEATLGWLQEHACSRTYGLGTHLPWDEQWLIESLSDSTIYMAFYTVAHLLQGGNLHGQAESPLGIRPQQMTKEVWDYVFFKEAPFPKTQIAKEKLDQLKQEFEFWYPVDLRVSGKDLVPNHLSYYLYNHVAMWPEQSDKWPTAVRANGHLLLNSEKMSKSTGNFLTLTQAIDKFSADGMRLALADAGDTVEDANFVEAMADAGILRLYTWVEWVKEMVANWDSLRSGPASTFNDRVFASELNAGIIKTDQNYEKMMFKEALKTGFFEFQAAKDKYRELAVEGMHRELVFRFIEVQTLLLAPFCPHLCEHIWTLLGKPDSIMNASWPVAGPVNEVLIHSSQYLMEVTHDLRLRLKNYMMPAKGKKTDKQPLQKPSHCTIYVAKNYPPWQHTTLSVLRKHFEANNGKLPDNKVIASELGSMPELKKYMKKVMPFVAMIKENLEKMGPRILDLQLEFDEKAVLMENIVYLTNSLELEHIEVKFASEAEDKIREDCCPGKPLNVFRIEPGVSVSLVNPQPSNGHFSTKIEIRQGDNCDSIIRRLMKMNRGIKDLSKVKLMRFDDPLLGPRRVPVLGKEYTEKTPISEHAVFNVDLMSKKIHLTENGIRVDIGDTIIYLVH
UniProt Q9UBH6: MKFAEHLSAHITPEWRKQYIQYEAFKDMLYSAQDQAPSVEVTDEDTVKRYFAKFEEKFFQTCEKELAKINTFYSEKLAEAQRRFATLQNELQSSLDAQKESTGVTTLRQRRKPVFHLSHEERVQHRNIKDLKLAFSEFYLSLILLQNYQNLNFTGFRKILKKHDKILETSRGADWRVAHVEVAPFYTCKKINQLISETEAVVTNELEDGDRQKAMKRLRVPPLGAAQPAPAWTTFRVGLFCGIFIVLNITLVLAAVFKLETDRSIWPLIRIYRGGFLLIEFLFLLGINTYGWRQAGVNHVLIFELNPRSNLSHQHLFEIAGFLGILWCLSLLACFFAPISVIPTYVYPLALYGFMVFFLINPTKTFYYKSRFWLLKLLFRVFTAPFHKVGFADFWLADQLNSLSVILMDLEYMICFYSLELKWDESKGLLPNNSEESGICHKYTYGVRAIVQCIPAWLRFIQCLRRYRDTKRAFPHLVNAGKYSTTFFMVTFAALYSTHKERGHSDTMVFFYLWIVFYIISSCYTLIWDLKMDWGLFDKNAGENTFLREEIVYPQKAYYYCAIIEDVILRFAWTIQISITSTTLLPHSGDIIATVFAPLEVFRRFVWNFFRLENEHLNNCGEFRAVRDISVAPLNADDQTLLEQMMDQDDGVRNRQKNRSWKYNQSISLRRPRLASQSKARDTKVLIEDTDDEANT
UniProt Q9UBD5: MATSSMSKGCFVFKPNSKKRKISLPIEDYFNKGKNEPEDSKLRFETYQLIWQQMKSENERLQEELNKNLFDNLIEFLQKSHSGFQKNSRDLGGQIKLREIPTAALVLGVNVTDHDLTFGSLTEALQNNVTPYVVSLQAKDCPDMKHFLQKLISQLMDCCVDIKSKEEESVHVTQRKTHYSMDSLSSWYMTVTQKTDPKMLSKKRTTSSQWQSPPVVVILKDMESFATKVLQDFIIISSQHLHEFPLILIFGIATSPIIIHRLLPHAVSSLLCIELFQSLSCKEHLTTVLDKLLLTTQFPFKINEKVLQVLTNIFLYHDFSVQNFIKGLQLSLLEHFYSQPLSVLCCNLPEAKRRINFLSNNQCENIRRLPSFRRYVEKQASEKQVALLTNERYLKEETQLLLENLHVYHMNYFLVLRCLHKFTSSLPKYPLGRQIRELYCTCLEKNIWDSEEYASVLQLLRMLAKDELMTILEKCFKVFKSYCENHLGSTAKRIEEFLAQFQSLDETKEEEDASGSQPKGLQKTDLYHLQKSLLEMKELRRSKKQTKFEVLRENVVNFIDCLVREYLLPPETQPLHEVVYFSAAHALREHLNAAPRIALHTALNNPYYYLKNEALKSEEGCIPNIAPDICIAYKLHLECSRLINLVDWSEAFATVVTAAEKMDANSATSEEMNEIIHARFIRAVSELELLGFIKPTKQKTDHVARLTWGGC

Compound: Nc1ncnc2c1ncn2[C@@H]1O[C@H](COP(=O)(O)OP(=O)(O)NP(=O)(O)O)[C@@H](O)[C@H]1O [adenylyl imidodiphosphate]
Assay: NP40-soluble protein abundance relative to vehicle (solubility fold change) (ratio); higher = more soluble protein in presence of AMP-PNP
In short: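 Values are fold changes against the detergent-processed vehicle, based on vsn-normalised intensities. Jurkat crude lysate was treated at eight concentrations from 0.1 to 10 mM (10 min at room temperature, then 3 min at 37 °C), solubilised with 0.8% NP40 and benzonase, ultracentrifuged and analysed by TMT-labelled LC-MS/MS over three independent experiments.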

Target	NP40-soluble protein abundance (concentration: 1mM)	NP40-soluble protein abundance (concentration: 2mM)	NP40-soluble protein abundance (concentration: 4mM)	NP40-soluble protein abundance (concentration: 6mM)	NP40-soluble protein abundance (concentration: 8mM)	NP40-soluble protein abundance (concentration: 10mM)
CDKN2AIP (UniProt Q9NXV6)	0.998 ± 0.025	1.04 ± 0.061	0.9964 ± 0.0077	1.009 ± 0.01	0.993 ± 0.029	1.03 ± 0.023
CHST12 (UniProt Q9NRB3)	1.001 ± 0.0077	0.999 ± 0.01	0.9935 ± 0.0064	1 ± 0.016	1.017 ± 0.0078	1.011 ± 0.0063
UniProt Q9NW81 and related entries	1 ± 0.03	1.01 ± 0.041	1.01 ± 0.053	0.975 ± 0.011	0.982 ± 0.042	1.01 ± 0.041
UniProt Q9NVH1 and related entries	1.02 ± 0.034	0.947 ± 0.09	0.974 ± 0.064	0.991 ± 0.035	0.987 ± 0.056	0.995 ± 0.081
TOMM22 (UniProt Q9NS69)	1.02 ± 0.046	1.05 ± 0.071	1.01 ± 0.024	0.983 ± 0.023	0.986 ± 0.014	0.982 ± 0.037
CTTNBP2NL (UniProt Q9P2B4)	1.02 ± 0.028	1.04 ± 0.038	1 ± 0.04	1 ± 0.022	0.972 ± 0.037	0.965 ± 0.0092
UniProt Q9NVH0 and related entries	0.999 ± 0.034	1.03 ± 0.04	1.01 ± 0.035	0.977 ± 0.031	0.965 ± 0.024	0.957 ± 0.024
COMMD8 (UniProt Q9NX08)	0.947 ± 0.02	0.955 ± 0.05	0.964 ± 0.03	0.943 ± 0.042	0.964 ± 0.03	0.892 ± 0.013
ACTR10 (UniProt Q9NZ32)	0.996 ± 0.035	0.957 ± 0.056	0.988 ± 0.054	0.961 ± 0.058	0.957 ± 0.062	0.949 ± 0.076
UniProt Q9P0U4 and related entries	0.965 ± 0.028	0.997 ± 0.025	1.005 ± 0.0053	1.01 ± 0.039	1.021 ± 0.0081	1.02 ± 0.025
UniProt Q9NZN5-2|Q9NZN5	1.03 ± 0.036	1.06 ± 0.012	1.05 ± 0.018	0.986 ± 0.028	0.957 ± 0.011	0.995 ± 0.013
FBXO28 (UniProt Q9NVF7)	1.04 ± 0.0088	1.09 ± 0.051	1.075 ± 0.0055	1.13 ± 0.015	1.15 ± 0.02	1.14 ± 0.073
UniProt Q9NZJ7 and related entries	0.964 ± 0.042	1.01 ± 0.041	0.99 ± 0.023	0.946 ± 0.035	0.964 ± 0.017	0.962 ± 0.033
ABCB10 (UniProt Q9NRK6)	0.952 ± 0.031	0.876 ± 0.076	0.958 ± 0.027	0.929 ± 0.045	0.985 ± 0.02	0.9181 ± 0.0057
UniProt Q9NZ01	0.98 ± 0.037	0.878 ± 0.089	0.96 ± 0.037	0.964 ± 0.032	1.05 ± 0.032	0.944 ± 0.036
UniProt Q9NZB8 and related entries	0.973 ± 0.026	0.941 ± 0.017	0.967 ± 0.042	0.977 ± 0.061	0.993 ± 0.063	0.968 ± 0.081
UniProt Q9P0I2	0.975 ± 0.028	0.986 ± 0.02	0.97 ± 0.041	0.985 ± 0.0057	0.998 ± 0.0073	0.996 ± 0.0084
GEMIN8 (UniProt Q9NWZ8)	0.959 ± 0.016	0.9461 ± 0.0079	0.952 ± 0.044	0.918 ± 0.039	0.944 ± 0.055	0.906 ± 0.021
UniProt Q9NXF7	0.997 ± 0.032	1.04 ± 0.044	0.9985 ± 0.005	0.973 ± 0.056	0.955 ± 0.016	0.978 ± 0.0026
RNF181 (UniProt Q9P0P0)	0.96 ± 0.026	1.02 ± 0.039	0.97 ± 0.047	0.936 ± 0.04	0.9415 ± 0.0063	0.922 ± 0.073

Target	NP40-soluble protein abundance (concentration: 1mM)	NP40-soluble protein abundance (concentration: 2mM)	NP40-soluble protein abundance (concentration: 4mM)	NP40-soluble protein abundance (concentration: 6mM)	NP40-soluble protein abundance (concentration: 8mM)	NP40-soluble protein abundance (concentration: 10mM)
UniProt Q9P260 and related entries	1 ± 0.017	0.98 ± 0.025	0.989 ± 0.02	0.986 ± 0.011	0.9709 ± 0.0089	0.951 ± 0.025
UniProt Q9P2R3 and related entries	0.987 ± 0.019	0.935 ± 0.049	1 ± 0.026	0.976 ± 0.039	1.002 ± 0.0045	0.9782 ± 0.0074
HINT3 (UniProt Q9NQE9)	1.02 ± 0.015	1.01 ± 0.024	1.01 ± 0.03	0.983 ± 0.029	0.986 ± 0.032	0.962 ± 0.029
TXNL4B (UniProt Q9NX01)	0.984 ± 0.014	0.987 ± 0.032	0.993 ± 0.034	0.984 ± 0.015	0.98 ± 0.033	0.983 ± 0.02
UniProt Q9NXN4 and related entries	0.985 ± 0.034	0.963 ± 0.029	1.01 ± 0.045	0.999 ± 0.073	1.01 ± 0.039	0.9755 ± 0.0088
UniProt Q9NW75 and related entries	1.03 ± 0.025	1.05 ± 0.067	1.03 ± 0.033	1.05 ± 0.069	1.05 ± 0.075	1.07 ± 0.069
UniProt Q9NS23 and related entries	0.986 ± 0.057	0.972 ± 0.036	0.978 ± 0.027	0.98 ± 0.024	0.975 ± 0.0073	0.991 ± 0.027
UBQLN4 (UniProt Q9NRR5)	0.998 ± 0.013	1.04 ± 0.04	1.05 ± 0.019	0.9778 ± 0.0081	0.953 ± 0.012	0.959 ± 0.057
UniProt Q9P0J0 and related entries	0.912 ± 0.015	0.851 ± 0.095	0.89 ± 0.021	0.856 ± 0.017	0.877 ± 0.037	0.792 ± 0.047
UniProt Q9NRY4	0.9859 ± 0.0086	0.971 ± 0.035	0.999 ± 0.028	0.984 ± 0.03	0.964 ± 0.036	0.935 ± 0.024
UniProt Q9NR31 and related entries	0.905 ± 0.053	0.816 ± 0.054	0.835 ± 0.02	0.854 ± 0.041	0.884 ± 0.022	0.812 ± 0.043
UniProt Q9UBS0	1.09 ± 0.05	1.09 ± 0.1	1.1 ± 0.09	1.09 ± 0.035	1.07 ± 0.036	1.06 ± 0.043
RERE (UniProt Q9P2R6)	1.019 ± 0.0016	1.06 ± 0.019	1.02 ± 0.019	1.02 ± 0.024	1.01 ± 0.036	1.02 ± 0.038
FAM114A2 (UniProt Q9NRY5)	1.06 ± 0.023	1.07 ± 0.058	0.999 ± 0.023	0.974 ± 0.041	0.946 ± 0.021	0.936 ± 0.018
GNL3L (UniProt Q9NVN8)	1.05 ± 0.037	1.05 ± 0.031	1.05 ± 0.058	1.07 ± 0.034	1.07 ± 0.062	1.1 ± 0.087
DNAJC17 (UniProt Q9NVM6)	1.06 ± 0.033	1.07 ± 0.041	1.1 ± 0.068	1.08 ± 0.017	1.11 ± 0.054	1.08 ± 0.03
UniProt Q9NQY0 and related entries	1.06 ± 0.039	1.06 ± 0.053	1.05 ± 0.073	1.01 ± 0.032	1.04 ± 0.02	1 ± 0.011
UniProt Q9NYJ8	0.885 ± 0.076	0.87 ± 0.05	0.9 ± 0.068	0.94 ± 0.062	0.945 ± 0.089	0.892 ± 0.092
RMND1 (UniProt Q9NWS8)	0.97 ± 0.042	0.971 ± 0.051	0.955 ± 0.05	0.955 ± 0.034	0.963 ± 0.058	0.954 ± 0.062
UniProt Q9NXR1 and related entries	0.994 ± 0.029	1.07 ± 0.041	1.01 ± 0.025	0.978 ± 0.019	0.985 ± 0.026	0.9852 ± 0.0096

Target	NP40-soluble protein abundance (concentration: 1mM)	NP40-soluble protein abundance (concentration: 2mM)	NP40-soluble protein abundance (concentration: 4mM)	NP40-soluble protein abundance (concentration: 6mM)	NP40-soluble protein abundance (concentration: 8mM)	NP40-soluble protein abundance (concentration: 10mM)
UniProt Q9NWV4	0.99 ± 0.02	1.03 ± 0.066	1.01 ± 0.066	1.13 ± 0.14	1.09 ± 0.097	1.14 ± 0.1
SAE1 (UniProt Q9UBE0)	1.009 ± 0.0077	0.981 ± 0.029	0.9643 ± 0.0042	0.991 ± 0.033	0.983 ± 0.044	0.982 ± 0.057
UniProt Q9NV88 and related entries	1.007 ± 0.0074	0.965 ± 0.082	1.01 ± 0.036	0.991 ± 0.044	1.02 ± 0.069	1.01 ± 0.081
UniProt Q9NPQ8 and related entries	1.07 ± 0.021	1.05 ± 0.028	1.06 ± 0.051	1.02 ± 0.046	1.02 ± 0.055	1.03 ± 0.046
IMPAD1 (UniProt Q9NX62)	1 ± 0.024	1.03 ± 0.08	0.978 ± 0.044	0.989 ± 0.013	0.98 ± 0.036	0.992 ± 0.078
LARS (UniProt Q9P2J5)	0.977 ± 0.072	0.881 ± 0.17	0.925 ± 0.11	0.912 ± 0.13	0.929 ± 0.14	0.898 ± 0.19
CPSF2 (UniProt Q9P2I0)	1.01 ± 0.016	1 ± 0.053	1.03 ± 0.027	1.03 ± 0.061	1.05 ± 0.035	1.07 ± 0.055
CISD1 (UniProt Q9NZ45)	1 ± 0.047	1.04 ± 0.046	1 ± 0.04	0.992 ± 0.039	1.02 ± 0.0018	0.968 ± 0.051
UniProt Q9NRG9 and related entries	0.964 ± 0.04	0.925 ± 0.053	0.948 ± 0.056	0.972 ± 0.034	0.96 ± 0.051	0.958 ± 0.036
UniProt Q9P2R7 and related entries	0.9771 ± 0.0078	0.943 ± 0.027	0.938 ± 0.011	0.977 ± 0.032	0.958 ± 0.012	0.969 ± 0.049
UniProt Q9P0L0 and related entries	1.05 ± 0.015	1.09 ± 0.056	1.03 ± 0.045	1 ± 0.025	0.993 ± 0.034	1.01 ± 0.055
PFDN4 (UniProt Q9NQP4)	1.01 ± 0.024	1.01 ± 0.029	0.98 ± 0.023	0.924 ± 0.065	0.893 ± 0.043	0.911 ± 0.049
UniProt Q9NSB8 and related entries	0.998 ± 0.0067	1.01 ± 0.065	0.999 ± 0.038	1.01 ± 0.033	1.01 ± 0.016	1.06 ± 0.036
UniProt Q9NYR9 and related entries	1.06 ± 0.032	1.059 ± 0.009	1.02 ± 0.05	1.02 ± 0.046	1.01 ± 0.043	1.03 ± 0.04
USE1 (UniProt Q9NZ43)	1 ± 0.017	1.06 ± 0.053	0.9922 ± 0.0053	0.974 ± 0.03	0.95 ± 0.02	0.986 ± 0.028
UniProt Q9UBH6 and related entries	1.041 ± 0.0096	1.01 ± 0.025	1.031 ± 0.0021	1.03 ± 0.012	1.02 ± 0.012	1.02 ± 0.037
THYN1 (UniProt Q9P016)	1.05 ± 0.036	1.13 ± 0.065	1.1 ± 0.069	1.16 ± 0.035	1.18 ± 0.013	1.17 ± 0.055
UniProt Q9UBL3 and related entries	0.995 ± 0.018	0.985 ± 0.016	0.997 ± 0.025	1 ± 0.023	0.99 ± 0.017	1.03 ± 0.033
UniProt Q9UBD5 and related entries	1.01 ± 0.021	1.01 ± 0.02	1.03 ± 0.037	0.994 ± 0.027	1.004 ± 0.0078	1.01 ± 0.041
TMEM9B (UniProt Q9NQ34)	1.01 ± 0.032	1.05 ± 0.028	1.01 ± 0.057	0.978 ± 0.017	0.982 ± 0.032	0.986 ± 0.013

Record cards (already shown).
CPSF2 (UniProt Q9P2I0) in the list: NP40-soluble protein abundance (concentration: 1mM): 1.01 ± 0.016; NP40-soluble protein abundance (concentration: 2mM): 1 ± 0.053; NP40-soluble protein abundance (concentration: 4mM): 1.03 ± 0.027; NP40-soluble protein abundance (concentration: 6mM): 1.03 ± 0.061; NP40-soluble protein abundance (concentration: 8mM): 1.05 ± 0.035; NP40-soluble protein abundance (concentration: 10mM): 1.07 ± 0.055
FBXO28 (UniProt Q9NVF7) in the list: NP40-soluble protein abundance (concentration: 1mM): 1.04 ± 0.0088; NP40-soluble protein abundance (concentration: 2mM): 1.09 ± 0.051; NP40-soluble protein abundance (concentration: 4mM): 1.075 ± 0.0055; NP40-soluble protein abundance (concentration: 6mM): 1.13 ± 0.015; NP40-soluble protein abundance (concentration: 8mM): 1.15 ± 0.02; NP40-soluble protein abundance (concentration: 10mM): 1.14 ± 0.073
CDKN2AIP (UniProt Q9NXV6) in the list: NP40-soluble protein abundance (concentration: 1mM): 0.998 ± 0.025; NP40-soluble protein abundance (concentration: 2mM): 1.04 ± 0.061; NP40-soluble protein abundance (concentration: 4mM): 0.9964 ± 0.0077; NP40-soluble protein abundance (concentration: 6mM): 1.009 ± 0.01; NP40-soluble protein abundance (concentration: 8mM): 0.993 ± 0.029; NP40-soluble protein abundance (concentration: 10mM): 1.03 ± 0.023
PFDN4 (UniProt Q9NQP4) in the list: NP40-soluble protein abundance (concentration: 1mM): 1.01 ± 0.024; NP40-soluble protein abundance (concentration: 2mM): 1.01 ± 0.029; NP40-soluble protein abundance (concentration: 4mM): 0.98 ± 0.023; NP40-soluble protein abundance (concentration: 6mM): 0.924 ± 0.065; NP40-soluble protein abundance (concentration: 8mM): 0.893 ± 0.043; NP40-soluble protein abundance (concentration: 10mM): 0.911 ± 0.049
